Reference: patent publication US20060269536A1
No constants are given. Whether binding was seen depends on the method and setting. Some entries that bind do so weakly or less than the wild type.

By UniProt entry, the sequences of proteins in these tests, tags left out. Residues count along the entry.
UniProt P20151, residues 25-261: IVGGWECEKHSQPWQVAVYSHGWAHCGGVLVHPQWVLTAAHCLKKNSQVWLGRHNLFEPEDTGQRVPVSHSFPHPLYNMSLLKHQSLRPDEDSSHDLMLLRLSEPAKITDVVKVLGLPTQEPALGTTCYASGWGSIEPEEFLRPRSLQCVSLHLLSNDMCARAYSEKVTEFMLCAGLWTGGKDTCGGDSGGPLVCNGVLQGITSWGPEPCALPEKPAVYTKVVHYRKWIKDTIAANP

Experiments:
[1] = target: human glandular kallikrein hK2 (human) (UniProt P20151); assay: Western blot, anti-hK2 antibody, 3 h at 37° C., I:E 100:1 (FIG. 3A)
[2] = target: human glandular kallikrein hK2 (human) (UniProt P20151); assay: covalent complex formation with hK2
[3] = target: human glandular kallikrein hK2 (human) (UniProt P20151); assay: inhibition of hK2 over time (data not shown)
[4] = target: human glandular kallikrein hK2 (human) (UniProt P20151); assay: Western blot, anti-hK2 antibody 9D5, 1 µg inhibitor with 100 ng hK2, 1 hour at 37° C. (FIG. 6A)

Measured: binding

B1: rACT6.1 (designed binder)
chain: MRGSHHHHHHSRHPNSPLDEENLTQENQDRGTHVDLGLASANVDFAFSLYKQLVLKAPDKNVIFSPLSISTALAFLSLGAHNTTLTEILKGLKFNLTETSEAEIHQSFQHLLRTLNQSSDELQLSMGNAMFVKEQLSLLDRFTEDAKRLYGSEAFATDFQDSAAAKKLINDYVKNGTRGKITDLIKDLDSQTMMVLVNYIFFKAKWEMPFDPQDTHQSRFYLSKKKWVMVPMMSLHHLTIPYFRDEELSCTVVELKYTGNASALFILPDQDKMEEVEAMLLPETLKRWRDSLEFREIGELYLPKFSISRDYNLNDILLQLGIEEAFTSKADLSGITGARNLAVSQVVHKAVLDVFEEGTEASAATAVKIMTRSNAVETRTIVRFNRPFLMIIVPTDTQNIFFMSKVTNPKQA
binds: all assays above
